In publication PMC5839386:
No constants are given. Whether binding was seen depends on the method and setting. In cells and extracts the contact can be indirect. Some entries that bind do so weakly or less than the wild type. Sequences can lack the tags named with a protein.

The chains behind the UniProt entries cited, without tags or fusion partners.
UniProt Q9Y5K6: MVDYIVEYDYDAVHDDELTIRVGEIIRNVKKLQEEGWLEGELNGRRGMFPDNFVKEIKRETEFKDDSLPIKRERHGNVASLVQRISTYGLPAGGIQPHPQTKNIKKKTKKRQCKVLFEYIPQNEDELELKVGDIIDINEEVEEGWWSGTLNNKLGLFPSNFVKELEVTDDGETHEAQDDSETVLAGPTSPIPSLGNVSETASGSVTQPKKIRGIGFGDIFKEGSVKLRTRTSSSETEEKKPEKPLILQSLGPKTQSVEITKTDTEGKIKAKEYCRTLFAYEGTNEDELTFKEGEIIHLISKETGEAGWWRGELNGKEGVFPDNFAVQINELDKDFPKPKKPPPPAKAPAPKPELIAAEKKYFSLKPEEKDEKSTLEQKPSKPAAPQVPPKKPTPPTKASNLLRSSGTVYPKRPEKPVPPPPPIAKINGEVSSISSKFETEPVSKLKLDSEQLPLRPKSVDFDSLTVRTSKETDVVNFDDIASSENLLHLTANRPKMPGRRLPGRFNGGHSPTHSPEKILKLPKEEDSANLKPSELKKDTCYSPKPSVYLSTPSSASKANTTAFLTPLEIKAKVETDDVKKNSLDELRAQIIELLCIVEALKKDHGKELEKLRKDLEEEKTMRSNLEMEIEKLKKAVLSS

Key:
[1] = target: Flag-tagged human Rheb (human) (UniProt Q15382); experiment: co-IP; HEK293T cells co-transfected with Flag- and V5-tagged proteins; lysis in IP buffer (1% Triton-X 100, 20 mM Tris pH 7.5, 50 mM NaCl); anti-FLAG M2 affinity beads, 4°C; blot with anti-V5
[2] = target: Flag-tagged CD2AP (control protein) (UniProt Q9Y5K6); experiment: as above

binding [1] | binding [2] | Binder
binds | no binding | V5-tagged truncated oncogenic form of human Dbl (domain or fragment, UniProt P10911 498-925) HVLNELIQTERVYVRELYTVLLGYRAEMDNPEMFDLMPPLLRNKKDILFGNMAEIYEFHNDIFLSSLENCAHAPERVGPCFLERKDDFQMYAKYCQNKPRSETIWRKYSECAFFQECQRKLKHRLRLDSYLLKPVQRITKYQLLLKELLKYSKDCEGSALLKKALDAMLDLLKSVNDSMHQIAINGYIGNLNELGKMIMQGGFSVWIGHKKGATKMKDLARFKPMQRHLFLYEKAIVFCKRRVESGEGSDRYPSYSFKHCWKMDEVGITEYVKGDNRKFEIWYGEKEEVYIVQASNVDVKMTWLKEIRNILLKQQELLTVKKRKQQDQLTERDKFQISLQQNDEKQQGAFISTEETELEHTSTVVEVCEAIASVQAEANTVWTEASQSAEISEEPAEWSSNYFYPTYDENEEENRPLMRPVSEMALLY
binds | no binding | V5-tagged full-length proto-oncogenic form of human Dbl (protein, UniProt P10911 1-925) MAEANPRRGKMRFRRNAASFPGNLHLVLVLRPTSFLQRTFTDIGFWFSQEDFMLKLPVVMLSSVSDLLTYIDDKQLTPELGGTLQYCHSEWIIFRNAIENFALTVKEMAQMLQSFGTELAETELPDDIPSIEEILAIRAERYHLLKNDITAVTKEGKILLTNLEVPDTEGAVSSRLECHRQISGDWQTINKLLTQVHDMETAFDGFWEKHQLKMEQYLQLWKFEQDFQQLVTEVEFLLNQQAELADVTGTIAQVKQKIKKLENLDENSQELLSKAQFVILHGHKLAANHHYALDLICQRCNELRYLSDILVNEIKAKRIQLSRTFKMHKLLQQARQCCDEGECLLANQEIDKFQSKEDAQKALQDIENFLEMALPFINYEPETLQYEFDVILSPELKVQMKTIQLKLENIRSIFENQQAGFRNLADKHVRPIQFVVPTPENLVTSGTPFFSSKQGKKTWRQNQSNLKIEVVPDCQEKRSSGPSSSLDNGNSLDVLKNHVLNELIQTERVYVRELYTVLLGYRAEMDNPEMFDLMPPLLRNKKDILFGNMAEIYEFHNDIFLSSLENCAHAPERVGPCFLERKDDFQMYAKYCQNKPRSETIWRKYSECAFFQECQRKLKHRLRLDSYLLKPVQRITKYQLLLKELLKYSKDCEGSALLKKALDAMLDLLKSVNDSMHQIAINGYIGNLNELGKMIMQGGFSVWIGHKKGATKMKDLARFKPMQRHLFLYEKAIVFCKRRVESGEGSDRYPSYSFKHCWKMDEVGITEYVKGDNRKFEIWYGEKEEVYIVQASNVDVKMTWLKEIRNILLKQQELLTVKKRKQQDQLTERDKFQISLQQNDEKQQGAFISTEETELEHTSTVVEVCEAIASVQAEANTVWTEASQSAEISEEPAEWSSNYFYPTYDENEEENRPLMRPVSEMALLY
